Experimental data: article PMC6627514
No constants are given. Whether binding was seen depends on the method and setting. In cells and extracts the contact can be indirect. Some binding calls cover weakened binding; strength is not graded here.

The chains behind the UniProt entries cited, without tags or fusion partners. Residues count along the entry.
UniProt Q9Y3R0: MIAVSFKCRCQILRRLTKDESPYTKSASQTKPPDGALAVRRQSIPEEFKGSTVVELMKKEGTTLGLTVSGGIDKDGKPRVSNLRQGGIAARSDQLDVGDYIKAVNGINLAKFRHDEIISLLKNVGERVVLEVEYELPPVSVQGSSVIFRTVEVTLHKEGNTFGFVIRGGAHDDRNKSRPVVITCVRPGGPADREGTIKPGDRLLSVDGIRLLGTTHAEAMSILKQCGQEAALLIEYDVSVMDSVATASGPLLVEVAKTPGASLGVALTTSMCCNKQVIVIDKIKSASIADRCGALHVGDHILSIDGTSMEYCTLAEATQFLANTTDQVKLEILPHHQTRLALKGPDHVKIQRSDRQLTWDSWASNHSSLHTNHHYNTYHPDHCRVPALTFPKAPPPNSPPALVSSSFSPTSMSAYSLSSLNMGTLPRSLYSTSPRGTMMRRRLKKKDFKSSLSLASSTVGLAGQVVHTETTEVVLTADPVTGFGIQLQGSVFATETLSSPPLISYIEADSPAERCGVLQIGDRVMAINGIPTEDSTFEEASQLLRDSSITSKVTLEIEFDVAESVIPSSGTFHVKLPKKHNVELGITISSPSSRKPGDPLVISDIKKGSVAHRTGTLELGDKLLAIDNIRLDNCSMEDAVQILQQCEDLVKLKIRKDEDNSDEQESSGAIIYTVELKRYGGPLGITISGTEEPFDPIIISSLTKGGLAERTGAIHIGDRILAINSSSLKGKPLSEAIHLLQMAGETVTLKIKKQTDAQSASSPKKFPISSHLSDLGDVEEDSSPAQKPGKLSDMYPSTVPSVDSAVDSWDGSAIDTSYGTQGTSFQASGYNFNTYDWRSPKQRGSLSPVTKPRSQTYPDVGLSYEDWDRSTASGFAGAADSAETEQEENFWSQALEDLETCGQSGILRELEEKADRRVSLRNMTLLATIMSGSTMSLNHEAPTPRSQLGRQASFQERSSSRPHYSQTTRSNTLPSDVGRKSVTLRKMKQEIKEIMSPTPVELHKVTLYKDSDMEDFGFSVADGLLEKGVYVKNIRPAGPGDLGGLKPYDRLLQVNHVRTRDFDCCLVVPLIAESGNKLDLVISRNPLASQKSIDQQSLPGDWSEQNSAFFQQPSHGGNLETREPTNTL
UniProt O60260: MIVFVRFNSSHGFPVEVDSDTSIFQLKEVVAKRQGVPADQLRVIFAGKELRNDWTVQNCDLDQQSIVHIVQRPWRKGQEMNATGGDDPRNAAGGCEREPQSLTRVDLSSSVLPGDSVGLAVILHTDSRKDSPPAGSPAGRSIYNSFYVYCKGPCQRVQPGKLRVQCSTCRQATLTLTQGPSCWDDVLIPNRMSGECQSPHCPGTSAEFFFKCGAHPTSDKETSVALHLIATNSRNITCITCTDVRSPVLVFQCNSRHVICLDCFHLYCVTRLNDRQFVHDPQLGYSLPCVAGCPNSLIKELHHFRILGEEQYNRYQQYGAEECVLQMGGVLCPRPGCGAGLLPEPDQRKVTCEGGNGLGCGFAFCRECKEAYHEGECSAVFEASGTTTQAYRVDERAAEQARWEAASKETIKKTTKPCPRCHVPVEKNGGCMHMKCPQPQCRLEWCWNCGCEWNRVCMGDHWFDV
UniProt P42262, residues 25-883: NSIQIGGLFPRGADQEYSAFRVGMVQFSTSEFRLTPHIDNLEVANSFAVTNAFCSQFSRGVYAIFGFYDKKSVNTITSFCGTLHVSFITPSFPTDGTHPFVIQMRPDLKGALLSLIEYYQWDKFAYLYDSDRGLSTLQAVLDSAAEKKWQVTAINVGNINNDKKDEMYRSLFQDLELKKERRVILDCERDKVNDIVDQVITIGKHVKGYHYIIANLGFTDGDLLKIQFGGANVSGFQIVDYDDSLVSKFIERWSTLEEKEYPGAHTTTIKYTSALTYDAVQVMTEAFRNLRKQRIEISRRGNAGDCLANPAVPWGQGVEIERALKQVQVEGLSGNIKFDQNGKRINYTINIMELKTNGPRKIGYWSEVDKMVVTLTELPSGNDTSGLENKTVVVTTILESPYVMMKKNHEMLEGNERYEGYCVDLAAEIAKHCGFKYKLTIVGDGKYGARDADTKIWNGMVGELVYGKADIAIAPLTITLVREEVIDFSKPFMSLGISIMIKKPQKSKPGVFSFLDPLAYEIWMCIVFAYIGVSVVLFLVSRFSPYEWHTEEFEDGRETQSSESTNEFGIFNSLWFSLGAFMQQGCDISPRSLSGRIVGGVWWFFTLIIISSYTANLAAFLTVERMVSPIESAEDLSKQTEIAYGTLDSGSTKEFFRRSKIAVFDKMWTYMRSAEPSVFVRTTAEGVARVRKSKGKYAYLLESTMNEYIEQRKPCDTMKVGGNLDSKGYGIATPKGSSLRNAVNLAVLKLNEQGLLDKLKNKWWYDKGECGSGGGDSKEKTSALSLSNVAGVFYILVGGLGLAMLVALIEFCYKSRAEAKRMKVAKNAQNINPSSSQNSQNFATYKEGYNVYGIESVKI

Legend:
Test in all cases: co-IP; lysates (RIPA buffer, 500 μg protein) of 21-day Normal-RGCs and LHON-RGCs; anti-PICK1, anti-Parkin or anti-GRIP1 antibody on protein G magnetic beads; binding buffer 50 mM Hepes, 125 mM NaCl, 0.1% Triton X-100, 15 μM CaCl2, 5 μM EDTA; 4 °C overnight; immunoblot of the precipitates
[1] = target: GRIP1 (human (endogenous in hiPSC-derived RGCs)) (UniProt Q9Y3R0)
[2] = target: PICK1 (human (endogenous in hiPSC-derived RGCs)) (UniProt Q9NRD5)
[3] = target: Parkin (human (endogenous in hiPSC-derived RGCs)) (UniProt O60260)

“AMPA receptor subunit GluR2 (from UniProt P42262 25-883)” was tested, and the binding [1] was “binds”.

With “protein kinase Cα (from UniProt P17252 1-672) (enzyme)” the binding [2] was “binds”.

B1: Homer 1b/1c (protein, UniProt Q86YM7 1-354)
chain: MGEQPIFSTRAHVFQIDPNTKKNWVPTSKHAVTVSYFYDSTRNVYRIISLDGSKAIINSTITPNMTFTKTSQKFGQWADSRANTVYGLGFSSEHHLSKFAEKFQEFKEAARLAKEKSQEKMELTSTPSQESAGGDLQSPLTPESINGTDDERTPDVTQNSEPRAEPTQNALPFSHSSAISKHWEAELATLKGNNAKLTAALLESTANVKQWKQQLAAYQEEAERLHKRVTELECVSSQANAVHTHKTELNQTIQELEETLKLKEEEIERLKQEIDNARELQEQRDSLTQKLQEVEIRNKDLEGQLSDLEQRLEKSQNEQEAFRNNLKTLLEILDGKIFELTELRDNLAKLLECS
For B1, the binding [3] was “binds”.
